From article doi:10.1101/2020.05.08.084814
These are yes or no findings as the source states them, for the method shown. Binding seen in cells or lysates may run through a third protein. A result given as binding can be weak or reduced; the word gives no strength.

Biological target: Vera (Igf2bp3) (Xenopus laevis (endogenous in oocytes))
Test: co-IP

Binder	binding
Stau1 (Staufen1) (protein, UniProt Q6GM35 1-708) MSQAPKSPAAPLPKIQILNKNQHSPLPQPLSIPSTASPLPSENAGRPLQNSALPSPSVTSSGPTAVSSNMANPKEKTPMCLVNELARFNKIQPVYKLLSEQGPAHSKVIPLGRWQDYSLLERVGEERPRQMFTVQLTLGDQYWEAEGTSIKKAQHAAAAKALEGTKYPKPTVRPVRDSITPTVELNALCMKLGRKPIYKPLDPYTGIRSAYNYNMRGGGYPPRYFYPFPVAPILYQVELSVGGQQFHGKGRTRQAAKHDAAARALKSLHHEPLPDKPALNGKAADEENLNKSEISQVFEIALKRNMSVNFEVTKETGPPHMKSFLTKVIVGEFLGEGEGKSKKISKKNAAIAVLEELRKLPPLPTVEKMRPKIKKKTKSIVKLPTSPEYGQGMNPISRLAQIQQAKKGKEPEYILITERGLPRRREFVMQVKVGNHAAEGSGTNKKVAKRNAAENMLEILGFKVPPPPPKPALKTEEKLPVKKPGDGRKVTFYEPGSGEDGANHNKDDEFRMPYHSHQQLPAGILPMVPEVAQAVGVNQGLHTKEFNRVAPNPAKATVTAMIARELLYAGISPTADTILKNNNAAGHVLRGPFTRPSEQLNYLSRVQGLEVEYKDFPKNNKNEFVSLINCSSQPPLISHGIGKDVESCHDMAALNILKLLSELDQQNPEMPRTGNGPMSVCVKPEMESDPLLKPANSNTLGQTLDSTA	binds
hnRNPAB (40LoVE) (protein, UniProt A0A7M4CIF6 1-304) MSDTEQQCLETNAENGHEACDAEAAEDKAPTGQNGAEGEQINASKGEEDAGCVADISSPLTEGVKMFVGGLSWDTSKKDLKDYFAKFGEVSDCTIKMDPNTGRSRGFGFILFKDAESVDKVLEHKEHRLDGRLIDPKKAMAMKKDPIKKIFVGGLNPEAGEDQIREYFETFGEIEAIELPMDPKTNKRRGFVFITFKEEDPVKKILEKKFHNVSGSKCEIKIAQPKEVYQQQYGGRGGSFGGRGGRGGKGQGQNWNQGYNYWNQGYGNQGYGGYGQQGYGGYGNYDYSGYGYYGYGPGYDYSKN	binds
